Laboratory results published in the supplement of paper PMC12595434, “Development of retinoid nuclear receptor pathway antagonists through targeting aldehyde dehydrogenase 1A3” (iScience, 2025).
Some of the results follow. The data scatter; read single values as rough.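 Many melting curves are irregular; where none melted, Tm was taken as 64 °C.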

Protein sequences, listed by entry. Tags and fused reporters are not part of them. Lines headed by an entry give the natural chain unless they say otherwise; changes in a name come on top.
UniProt Q8NBW4: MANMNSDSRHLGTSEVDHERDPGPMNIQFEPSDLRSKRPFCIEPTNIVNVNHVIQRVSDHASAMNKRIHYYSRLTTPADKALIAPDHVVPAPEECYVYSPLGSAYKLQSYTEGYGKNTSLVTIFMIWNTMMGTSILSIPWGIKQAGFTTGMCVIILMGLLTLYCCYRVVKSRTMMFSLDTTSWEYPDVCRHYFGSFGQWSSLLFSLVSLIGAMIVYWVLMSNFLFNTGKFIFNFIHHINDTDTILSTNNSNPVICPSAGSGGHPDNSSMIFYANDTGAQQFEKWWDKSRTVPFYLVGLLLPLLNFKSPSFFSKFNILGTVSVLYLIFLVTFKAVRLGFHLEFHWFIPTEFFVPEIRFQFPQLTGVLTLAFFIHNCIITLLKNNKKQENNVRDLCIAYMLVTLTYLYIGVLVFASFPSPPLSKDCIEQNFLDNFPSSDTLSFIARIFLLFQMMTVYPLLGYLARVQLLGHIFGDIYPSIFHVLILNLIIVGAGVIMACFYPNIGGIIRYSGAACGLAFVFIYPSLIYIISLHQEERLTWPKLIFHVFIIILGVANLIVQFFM
UniProt Q8N9F7: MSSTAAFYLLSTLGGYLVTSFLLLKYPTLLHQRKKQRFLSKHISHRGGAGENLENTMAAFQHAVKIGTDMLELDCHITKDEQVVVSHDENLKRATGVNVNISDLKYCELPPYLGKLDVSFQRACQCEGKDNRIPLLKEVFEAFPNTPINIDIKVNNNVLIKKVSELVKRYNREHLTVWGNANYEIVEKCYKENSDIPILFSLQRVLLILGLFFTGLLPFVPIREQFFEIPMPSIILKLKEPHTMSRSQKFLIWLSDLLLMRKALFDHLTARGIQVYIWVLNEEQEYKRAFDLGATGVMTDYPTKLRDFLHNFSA
UniProt Q8WVT3: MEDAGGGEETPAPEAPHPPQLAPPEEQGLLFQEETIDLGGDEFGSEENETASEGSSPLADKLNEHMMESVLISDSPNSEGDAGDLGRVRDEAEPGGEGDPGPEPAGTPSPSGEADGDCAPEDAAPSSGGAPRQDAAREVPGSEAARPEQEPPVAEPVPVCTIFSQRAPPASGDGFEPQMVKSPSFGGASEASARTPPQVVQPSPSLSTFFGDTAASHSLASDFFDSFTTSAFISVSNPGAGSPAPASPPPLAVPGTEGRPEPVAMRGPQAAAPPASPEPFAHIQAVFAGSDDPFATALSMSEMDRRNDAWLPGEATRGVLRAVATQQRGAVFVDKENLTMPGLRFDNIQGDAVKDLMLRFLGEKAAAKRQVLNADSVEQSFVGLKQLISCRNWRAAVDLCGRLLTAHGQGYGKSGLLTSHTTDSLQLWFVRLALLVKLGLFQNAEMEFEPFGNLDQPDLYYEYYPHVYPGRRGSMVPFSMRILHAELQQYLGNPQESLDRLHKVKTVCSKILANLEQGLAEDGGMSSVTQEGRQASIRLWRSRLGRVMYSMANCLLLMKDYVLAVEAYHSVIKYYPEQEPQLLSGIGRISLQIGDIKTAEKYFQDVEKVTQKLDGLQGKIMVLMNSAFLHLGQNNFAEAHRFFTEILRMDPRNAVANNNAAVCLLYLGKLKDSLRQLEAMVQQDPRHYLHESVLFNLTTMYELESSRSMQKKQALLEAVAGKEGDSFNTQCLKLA
UniProt Q8WUA7: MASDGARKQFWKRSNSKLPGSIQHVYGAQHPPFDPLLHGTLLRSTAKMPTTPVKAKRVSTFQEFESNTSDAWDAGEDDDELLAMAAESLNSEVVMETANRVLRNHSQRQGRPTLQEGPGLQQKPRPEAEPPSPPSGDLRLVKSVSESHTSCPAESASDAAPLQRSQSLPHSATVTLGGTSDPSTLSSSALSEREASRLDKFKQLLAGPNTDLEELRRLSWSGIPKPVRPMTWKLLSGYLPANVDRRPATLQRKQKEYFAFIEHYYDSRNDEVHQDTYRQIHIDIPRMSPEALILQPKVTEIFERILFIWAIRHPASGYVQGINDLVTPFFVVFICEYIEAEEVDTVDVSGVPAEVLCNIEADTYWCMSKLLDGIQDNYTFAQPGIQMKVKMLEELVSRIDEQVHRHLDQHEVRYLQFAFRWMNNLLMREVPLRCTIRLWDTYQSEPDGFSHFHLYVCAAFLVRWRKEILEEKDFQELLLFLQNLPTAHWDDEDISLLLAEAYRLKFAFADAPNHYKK
UniProt Q8NAN2: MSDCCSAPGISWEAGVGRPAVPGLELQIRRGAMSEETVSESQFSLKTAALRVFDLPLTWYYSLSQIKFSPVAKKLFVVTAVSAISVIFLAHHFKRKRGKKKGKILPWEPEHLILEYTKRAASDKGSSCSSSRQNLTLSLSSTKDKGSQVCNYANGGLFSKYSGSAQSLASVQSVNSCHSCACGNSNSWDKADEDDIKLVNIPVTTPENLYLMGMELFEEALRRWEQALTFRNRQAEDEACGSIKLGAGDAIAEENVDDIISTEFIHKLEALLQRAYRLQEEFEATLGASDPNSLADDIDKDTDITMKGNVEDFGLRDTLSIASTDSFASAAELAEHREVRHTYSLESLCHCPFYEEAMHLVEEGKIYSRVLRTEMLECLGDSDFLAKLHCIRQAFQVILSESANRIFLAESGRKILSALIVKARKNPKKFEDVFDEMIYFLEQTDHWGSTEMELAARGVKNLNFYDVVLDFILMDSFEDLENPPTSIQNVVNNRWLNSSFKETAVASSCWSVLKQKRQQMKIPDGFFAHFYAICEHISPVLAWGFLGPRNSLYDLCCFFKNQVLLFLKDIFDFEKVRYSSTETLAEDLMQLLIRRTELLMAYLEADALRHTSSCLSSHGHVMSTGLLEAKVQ
UniProt Q8TEW0: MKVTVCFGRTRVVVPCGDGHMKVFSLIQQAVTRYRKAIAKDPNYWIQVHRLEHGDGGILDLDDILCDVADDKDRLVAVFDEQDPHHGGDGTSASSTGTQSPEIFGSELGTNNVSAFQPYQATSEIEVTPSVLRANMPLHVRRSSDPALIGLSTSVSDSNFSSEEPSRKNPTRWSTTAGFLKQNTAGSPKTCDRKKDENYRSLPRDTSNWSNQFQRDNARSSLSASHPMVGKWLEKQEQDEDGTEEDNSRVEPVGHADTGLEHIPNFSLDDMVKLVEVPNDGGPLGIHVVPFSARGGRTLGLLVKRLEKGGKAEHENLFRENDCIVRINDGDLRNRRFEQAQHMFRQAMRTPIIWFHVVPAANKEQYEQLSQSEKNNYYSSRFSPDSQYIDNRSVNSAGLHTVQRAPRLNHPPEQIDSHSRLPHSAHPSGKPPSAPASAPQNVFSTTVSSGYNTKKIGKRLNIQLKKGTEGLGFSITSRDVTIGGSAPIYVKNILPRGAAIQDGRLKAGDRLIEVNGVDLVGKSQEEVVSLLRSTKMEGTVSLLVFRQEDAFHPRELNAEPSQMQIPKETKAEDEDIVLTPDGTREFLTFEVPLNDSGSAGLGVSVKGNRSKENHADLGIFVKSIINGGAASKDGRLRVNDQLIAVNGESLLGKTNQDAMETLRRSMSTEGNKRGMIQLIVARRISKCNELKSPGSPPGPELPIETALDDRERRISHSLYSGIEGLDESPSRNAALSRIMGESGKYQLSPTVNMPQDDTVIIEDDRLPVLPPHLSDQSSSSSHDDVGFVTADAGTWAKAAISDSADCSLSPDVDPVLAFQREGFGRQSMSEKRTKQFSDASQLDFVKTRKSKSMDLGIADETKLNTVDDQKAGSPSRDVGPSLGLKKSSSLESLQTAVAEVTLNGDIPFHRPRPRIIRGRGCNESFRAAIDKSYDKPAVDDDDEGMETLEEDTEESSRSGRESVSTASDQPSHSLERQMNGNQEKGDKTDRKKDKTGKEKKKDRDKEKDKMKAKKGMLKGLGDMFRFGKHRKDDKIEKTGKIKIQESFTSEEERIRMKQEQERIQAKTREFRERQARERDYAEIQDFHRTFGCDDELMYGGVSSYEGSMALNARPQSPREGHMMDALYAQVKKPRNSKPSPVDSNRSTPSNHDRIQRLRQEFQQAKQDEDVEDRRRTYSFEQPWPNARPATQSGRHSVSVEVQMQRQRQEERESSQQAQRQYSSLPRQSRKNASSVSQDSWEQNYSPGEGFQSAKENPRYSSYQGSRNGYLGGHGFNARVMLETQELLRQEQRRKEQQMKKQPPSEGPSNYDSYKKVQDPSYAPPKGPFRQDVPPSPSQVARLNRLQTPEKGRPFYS
UniProt Q8NDF8: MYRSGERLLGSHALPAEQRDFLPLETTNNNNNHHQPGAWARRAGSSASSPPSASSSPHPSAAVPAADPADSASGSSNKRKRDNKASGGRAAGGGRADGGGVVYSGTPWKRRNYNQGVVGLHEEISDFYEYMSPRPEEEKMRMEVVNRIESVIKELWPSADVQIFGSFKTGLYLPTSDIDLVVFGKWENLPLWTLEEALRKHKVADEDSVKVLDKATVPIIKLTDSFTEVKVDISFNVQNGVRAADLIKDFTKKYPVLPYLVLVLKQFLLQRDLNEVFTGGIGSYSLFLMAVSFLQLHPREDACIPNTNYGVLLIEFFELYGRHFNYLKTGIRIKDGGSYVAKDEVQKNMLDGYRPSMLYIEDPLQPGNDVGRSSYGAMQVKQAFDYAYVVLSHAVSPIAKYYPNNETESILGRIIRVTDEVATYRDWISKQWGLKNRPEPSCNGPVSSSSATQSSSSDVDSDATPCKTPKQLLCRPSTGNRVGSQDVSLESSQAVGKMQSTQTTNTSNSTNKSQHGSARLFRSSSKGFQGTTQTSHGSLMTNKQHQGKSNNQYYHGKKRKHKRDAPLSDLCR
UniProt Q8NBZ7: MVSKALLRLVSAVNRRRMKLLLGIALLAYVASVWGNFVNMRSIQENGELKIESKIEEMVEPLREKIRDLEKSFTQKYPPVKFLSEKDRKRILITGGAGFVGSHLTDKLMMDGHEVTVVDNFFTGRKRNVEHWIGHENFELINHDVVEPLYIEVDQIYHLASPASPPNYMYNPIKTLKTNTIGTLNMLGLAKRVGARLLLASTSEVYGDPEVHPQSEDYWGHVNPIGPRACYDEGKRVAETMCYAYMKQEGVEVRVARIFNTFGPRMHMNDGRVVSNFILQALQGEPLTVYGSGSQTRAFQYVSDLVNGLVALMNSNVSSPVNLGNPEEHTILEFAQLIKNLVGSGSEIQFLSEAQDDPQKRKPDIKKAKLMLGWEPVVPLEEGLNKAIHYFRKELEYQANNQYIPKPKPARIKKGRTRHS
UniProt Q8NFH3: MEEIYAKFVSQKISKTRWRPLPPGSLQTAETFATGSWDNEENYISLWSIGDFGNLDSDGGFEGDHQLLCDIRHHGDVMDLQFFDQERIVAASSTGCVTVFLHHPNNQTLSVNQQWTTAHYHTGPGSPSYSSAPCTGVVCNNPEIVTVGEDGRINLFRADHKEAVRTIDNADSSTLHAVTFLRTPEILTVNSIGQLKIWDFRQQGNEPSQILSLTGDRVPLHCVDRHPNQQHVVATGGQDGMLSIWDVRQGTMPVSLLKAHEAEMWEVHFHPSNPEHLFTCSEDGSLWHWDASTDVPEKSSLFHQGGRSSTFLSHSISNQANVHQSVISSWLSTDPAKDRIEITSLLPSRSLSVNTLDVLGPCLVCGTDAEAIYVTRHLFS
UniProt Q8N9B5, whole entry: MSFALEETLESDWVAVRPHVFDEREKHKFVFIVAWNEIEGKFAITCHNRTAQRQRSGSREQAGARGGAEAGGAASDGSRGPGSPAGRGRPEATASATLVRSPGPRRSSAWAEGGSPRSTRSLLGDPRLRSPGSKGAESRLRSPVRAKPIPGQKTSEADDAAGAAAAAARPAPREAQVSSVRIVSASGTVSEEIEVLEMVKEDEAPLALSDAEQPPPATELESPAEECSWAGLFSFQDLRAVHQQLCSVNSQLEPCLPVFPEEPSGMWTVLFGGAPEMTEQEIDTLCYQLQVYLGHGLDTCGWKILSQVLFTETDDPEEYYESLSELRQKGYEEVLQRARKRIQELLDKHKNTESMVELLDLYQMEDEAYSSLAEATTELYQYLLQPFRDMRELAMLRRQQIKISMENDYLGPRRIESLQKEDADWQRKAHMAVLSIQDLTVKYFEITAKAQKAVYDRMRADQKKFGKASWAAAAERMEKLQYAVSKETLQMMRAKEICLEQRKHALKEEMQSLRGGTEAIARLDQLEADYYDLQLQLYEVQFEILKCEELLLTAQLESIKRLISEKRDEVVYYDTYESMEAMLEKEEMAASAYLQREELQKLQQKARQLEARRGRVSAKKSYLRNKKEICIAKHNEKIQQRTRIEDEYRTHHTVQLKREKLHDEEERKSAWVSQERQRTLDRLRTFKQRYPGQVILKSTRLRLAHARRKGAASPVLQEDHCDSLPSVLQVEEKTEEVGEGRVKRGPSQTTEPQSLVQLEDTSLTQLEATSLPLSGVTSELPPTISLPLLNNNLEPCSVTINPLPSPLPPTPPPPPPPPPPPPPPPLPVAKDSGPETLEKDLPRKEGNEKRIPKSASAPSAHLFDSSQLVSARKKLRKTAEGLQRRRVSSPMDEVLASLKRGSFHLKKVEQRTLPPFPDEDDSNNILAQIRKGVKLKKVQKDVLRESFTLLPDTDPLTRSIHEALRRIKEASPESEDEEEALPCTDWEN

compound: CCc1cnccc1C(=O)Nc1cc2c(cc1F)NC(=O)CC2; test: melting temperature shift (DMSO Tm minus MBE1-treated Tm) in cellular thermal proteome profiling; higher = less thermal stabilization by MBE1 (negative = stabilized by MBE1); conditions: A375; MBE1 concentration: 100 nM

Row | Target | melting temperature shift [°C]
1 | UniProt Q8NEZ4 | -0.469
2 | NT5C (UniProt Q8TCD5) | -1.12
3 | UniProt Q8NCP5 | -0.0305
4 | BCL7C (UniProt Q8WUZ0) | 0.295
5 | UniProt Q8NBW4 | -0.705
6 | UniProt Q8TCA0 | -1.84
7 | UniProt Q8N9N5 | 0.102
8 | UniProt Q8TDI0 | -0.224
9 | UniProt Q8NDT2 | -0.57
10 | UniProt Q8TER5 | -0.898
11 | NEDD1 (UniProt Q8NHV4) | -0.51
12 | DMXL2 (UniProt Q8TDJ6) | -1.49
13 | WDR19 (UniProt Q8NEZ3) | -1.47
14 | UBAC2 (UniProt Q8NBM4) | 1.17
15 | NEK7 (UniProt Q8TDX7) | -0.055
16 | GDPD1 (UniProt Q8N9F7) | 1.04
17 | ASCC1 (UniProt Q8N9N2) | -0.541
18 | UniProt Q8TEL6 | -2.33
19 | TRAPPC12 (UniProt Q8WVT3) | 1.01

Row | Target | melting temperature shift [°C]
20 | UniProt Q8TE99 | -1.66
21 | TBC1D22A (UniProt Q8WUA7) | -1.32
22 | FAM73A (UniProt Q8NAN2) | 0.141
23 | UniProt Q8WV24 | -0.288
24 | PARD3 (UniProt Q8TEW0) | -0.592
25 | PAPD5 (UniProt Q8NDF8) | 0.333
26 | IPO4 (UniProt Q8TEX9) | -0.414
27 | HSD17B11 (UniProt Q8NBQ5) | -0.812
28 | KIAA1524 (UniProt Q8TCG1) | -0.589
29 | SCCPDH (UniProt Q8NBX0) | -0.771
30 | TSEN2 (UniProt Q8NCE0) | 0.324
31 | STT3B (UniProt Q8TCJ2) | -1.12
32 | UniProt Q8TEQ0 | 0.221
33 | UXS1 (UniProt Q8NBZ7) | -3.92
34 | UniProt Q8TEV9 | -0.349
35 | NUP43 (UniProt Q8NFH3) | -3.09
36 | JMY (UniProt Q8N9B5) | -0.461
37 | STK35 (UniProt Q8TDR2) | -0.568
38 | CEP76 (UniProt Q8TAP6) | -1.04

same assay, conditions: A375; MBE1 concentration: 1 uM

Row | Target | melting temperature shift [°C]
39 | UniProt Q8NEZ4 | 0.355
40 | NT5C (UniProt Q8TCD5) | -0.347
41 | UniProt Q8NCP5 | -0.202
42 | BCL7C (UniProt Q8WUZ0) | 0.583
43 | UniProt Q8NBW4 | 0
44 | UniProt Q8TCA0 | -1.09
45 | UniProt Q8N9N5 | -0.352
46 | UniProt Q8TDI0 | -0.179
47 | UniProt Q8NDT2 | -0.937
48 | UniProt Q8TER5 | -0.679
49 | NEDD1 (UniProt Q8NHV4) | 1.01
50 | DMXL2 (UniProt Q8TDJ6) | -2.05
51 | WDR19 (UniProt Q8NEZ3) | -0.301
52 | UBAC2 (UniProt Q8NBM4) | 0.366
53 | NEK7 (UniProt Q8TDX7) | -0.0916
54 | GDPD1 (UniProt Q8N9F7) | 0.983
55 | ASCC1 (UniProt Q8N9N2) | 0.141
56 | UniProt Q8TEL6 | -1.8
57 | TRAPPC12 (UniProt Q8WVT3) | -0.281

Row | Target | melting temperature shift [°C]
58 | UniProt Q8TE99 | 0.195
59 | TBC1D22A (UniProt Q8WUA7) | -1.58
60 | FAM73A (UniProt Q8NAN2) | -1.42
61 | UniProt Q8WV24 | -0.237
62 | PARD3 (UniProt Q8TEW0) | -0.629
63 | PAPD5 (UniProt Q8NDF8) | -0.327
64 | IPO4 (UniProt Q8TEX9) | -0.278
65 | HSD17B11 (UniProt Q8NBQ5) | 0.751
66 | KIAA1524 (UniProt Q8TCG1) | -0.25
67 | SCCPDH (UniProt Q8NBX0) | 0.651
68 | TSEN2 (UniProt Q8NCE0) | -0.989
69 | STT3B (UniProt Q8TCJ2) | -0.215
70 | UniProt Q8TEQ0 | -1.03
71 | UXS1 (UniProt Q8NBZ7) | -0.201
72 | UniProt Q8TEV9 | -0.148
73 | NUP43 (UniProt Q8NFH3) | 0.0183
74 | JMY (UniProt Q8N9B5) | 0.174
75 | STK35 (UniProt Q8TDR2) | -0.154
76 | CEP76 (UniProt Q8TAP6) | 1.71
